# Data published in PubChem BioAssay (NCATS).
# Values joined by “and” are separate entries in the source; they are usually repeats but may differ in a detail not shown here. Equal values may be shown once. Some of the results follow. Further columns of the screen follow, without active or inactive calls. Most of these compounds were active or inconclusive in the main read-out, so they are no random draw.
# Experiment: qHTS assay for small molecule antagonists of retinoid X receptor alpha signaling (AID 588546);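 note: cells stimulated with 9-cis-retinoic acid as agonist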
# Conditions: HEK293T RXRa-UAS-bla, beta-lactamase ratio, antagonist mode; measured here: W530 green channel, cytotoxicity proxy
# Outline: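 Beta-lactamase reporter inhibition, read as CCF4 fluorescence ratio (ex 405, em 460/530 nm) after 2 h at RT. HEK293T UAS-bla cells, 2500/well, were stimulated with 9-cis-RA at 500 or 100 nM final alongside test compound for 18 h at 37 C.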
# % is set by controls: 0 for no effect and ±100 for the full control effect.
row,SMILES,max response
1,FC(F)(F)c1ccc(Cl)cc1,-5.29%
2,O=C(O)C(F)(F)C(F)(F)C(F)(F)C(F)(F)C(F)(F)C(F)(F)C(F)(F)C(F)(F)C(F)(F)F,-14.4%
3,O=C(O)C(Br)CBr (stereo not given),-13.3%
4,C1=CC2C3C=CC(C3)C2C1 (stereo not given),-3.91%
5,Oc1cc(Cl)cc(Cl)c1Cl,5.3%
6,CCOP(=O)(OCC)Oc1ccc([N+](=O)[O-])cc1,-16.6%
7,O=[N+]([O-])C(Br)(CO)CO,-50.8%
8,S=C([S-])NCCNC(=S)[S-].[Mn+2],17.2% and -7.55%
9,CC(C)(OOC(C)(C)c1ccccc1)c1ccccc1,-30.6%
10,C=CC=O,8.98%
11,CCCCCCCCCc1ccc(O)cc1,-35%
12,CCCSP(=O)(OCC)Oc1ccc(Br)cc1Cl (stereo not given),-13%
13,O=C(O)c1cccc(Cl)c1,-3.58%
14,COP(=O)(OC)OC(Br)C(Cl)(Cl)Br (stereo not given),-10.7%
15,S=C([S-])NCCNC(=S)[S-].[Zn+2],-12.7%

# Reformatted: entries from further up
row	SMILES	max response
3	O=C(O)C(Br)CBr (stereo not given)	-13.3%
7	O=[N+]([O-])C(Br)(CO)CO	-50.8%
